Construct, isoform or probe ends are uncertain for at least one entry. For part of these data: A weaker result is weaker than the reference pair of the same experiment. For part of these data: At least one verdict rests on a figure or table, not on a statement of the authors.
Experiments:
[1] = system: ctXPD (Chaetomium thermophilum); test: photo-cross-linking; settings: 5 mM Mg2+, position 26 of strand 1 (B) = Fab(g)-dC, photo-cross-linking: 20 mM HEPES pH 7.5, 50 mM KCl, 5 mM MgCl2, 1 mM TCEP, UV 312 nm, recombinant protein, protein details: N-terminal His (pBADM11)
[2] = system: ctp44 (Chaetomium thermophilum); test: photo-cross-linking; settings: 5 mM Mg2+, no ATP, no ctXPD; position 26 of strand 1 (B) = Fab(g)-dC; photo-cross-linking: 20 mM HEPES pH 7.5, 50 mM KCl, 5 mM MgCl2, 1 mM TCEP, UV 312 nm; recombinant protein; protein details: N-terminal His (pETM11); label: 5'-32P on strand 1

| Sequence | binding result ([1]; three times less than ss probe, label: 5'-32P) | binding result ([1]; no ATP, no ctp44, more effective than Fap-dC, label: 5'-32P on strand 1) | binding result [2] |
| --- | --- | --- | --- |
| AAGCCTATGCCTACAGCATCCAGGGCGACGGTGCCGAGGATGACGATGAGCGCA (double strand) [ds-Fab(g)-dC 54/54] | binds more weakly |  |  |
| AAGCCTATGCCTACAGCATCCAGGGCGACGGTGCCGAGGATGACGATGAGCGCA / TGCGCTCATCGTCATCCTCGGCACCGTCGCCCTGGATG [fs-Fab(g)-dC 54/38] |  | binds | binds |

From PMC7991749
